From publication PMC4675518
Results are given in words; binding and its absence hold for the method and conditions named. In cells and extracts the contact can be indirect. Some results given as binding are weak or reduced against the parent protein; the word gives no strength.

Chains of the proteins cited; added tags and fusions are not shown. Residues count along the entry.
UniProt Q15848, residues 19-244: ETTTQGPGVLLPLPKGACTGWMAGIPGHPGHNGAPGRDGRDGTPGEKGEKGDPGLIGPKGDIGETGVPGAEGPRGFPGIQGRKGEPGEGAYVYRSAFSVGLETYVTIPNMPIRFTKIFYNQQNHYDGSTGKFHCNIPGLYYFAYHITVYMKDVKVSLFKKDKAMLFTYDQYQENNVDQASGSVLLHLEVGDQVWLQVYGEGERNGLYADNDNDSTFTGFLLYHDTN
UniProt Q04206: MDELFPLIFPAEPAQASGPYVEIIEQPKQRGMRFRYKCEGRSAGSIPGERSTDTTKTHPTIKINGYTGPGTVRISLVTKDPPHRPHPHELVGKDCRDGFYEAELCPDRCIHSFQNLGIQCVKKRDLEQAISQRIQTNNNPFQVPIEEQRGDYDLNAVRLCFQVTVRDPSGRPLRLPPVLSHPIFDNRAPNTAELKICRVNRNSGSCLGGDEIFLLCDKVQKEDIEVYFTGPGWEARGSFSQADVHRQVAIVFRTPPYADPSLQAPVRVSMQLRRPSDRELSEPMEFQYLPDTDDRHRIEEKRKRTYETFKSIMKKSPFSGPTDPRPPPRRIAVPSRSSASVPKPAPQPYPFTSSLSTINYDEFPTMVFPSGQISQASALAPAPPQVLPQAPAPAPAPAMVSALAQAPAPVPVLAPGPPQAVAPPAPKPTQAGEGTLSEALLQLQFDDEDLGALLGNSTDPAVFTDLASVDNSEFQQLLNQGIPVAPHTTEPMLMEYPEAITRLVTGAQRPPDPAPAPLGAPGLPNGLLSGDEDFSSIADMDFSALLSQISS

Legend:
[1] = target: adiponectin (human (endogenous in A549)) (UniProt Q15848); test: co-IP; A549 cells (curcumin, adiponectin silenced or transfected) lysed, adiponectin precipitated with adiponectin antibody, immunoblot shows bands of adiponectin monomer, dimer and multimer
[2] = target: p65 (NF-κB subunit) (human (endogenous in A549)) (UniProt Q04206); test: co-IP; A549 nuclear proteins (800 μg), precleared, incubated with 2 μg anti-adiponectin, anti-p65 or control rabbit IgG for 4 h, protein A/G agarose overnight at 4°C; immunoblot with anti-adiponectin and anti-p65; cells treated with curcumin, adiponectin siRNA or adiponectin vector

- binding [1]: binds
- binding [2]: binds
Substance: adiponectin (from UniProt Q15848 19-244)
